Experiment [1] has as its target T1, ZMYM2 (endogenous, U2OS cells) (human (endogenous in U2OS)) (UniProt Q9UBW7).
T1 sequence: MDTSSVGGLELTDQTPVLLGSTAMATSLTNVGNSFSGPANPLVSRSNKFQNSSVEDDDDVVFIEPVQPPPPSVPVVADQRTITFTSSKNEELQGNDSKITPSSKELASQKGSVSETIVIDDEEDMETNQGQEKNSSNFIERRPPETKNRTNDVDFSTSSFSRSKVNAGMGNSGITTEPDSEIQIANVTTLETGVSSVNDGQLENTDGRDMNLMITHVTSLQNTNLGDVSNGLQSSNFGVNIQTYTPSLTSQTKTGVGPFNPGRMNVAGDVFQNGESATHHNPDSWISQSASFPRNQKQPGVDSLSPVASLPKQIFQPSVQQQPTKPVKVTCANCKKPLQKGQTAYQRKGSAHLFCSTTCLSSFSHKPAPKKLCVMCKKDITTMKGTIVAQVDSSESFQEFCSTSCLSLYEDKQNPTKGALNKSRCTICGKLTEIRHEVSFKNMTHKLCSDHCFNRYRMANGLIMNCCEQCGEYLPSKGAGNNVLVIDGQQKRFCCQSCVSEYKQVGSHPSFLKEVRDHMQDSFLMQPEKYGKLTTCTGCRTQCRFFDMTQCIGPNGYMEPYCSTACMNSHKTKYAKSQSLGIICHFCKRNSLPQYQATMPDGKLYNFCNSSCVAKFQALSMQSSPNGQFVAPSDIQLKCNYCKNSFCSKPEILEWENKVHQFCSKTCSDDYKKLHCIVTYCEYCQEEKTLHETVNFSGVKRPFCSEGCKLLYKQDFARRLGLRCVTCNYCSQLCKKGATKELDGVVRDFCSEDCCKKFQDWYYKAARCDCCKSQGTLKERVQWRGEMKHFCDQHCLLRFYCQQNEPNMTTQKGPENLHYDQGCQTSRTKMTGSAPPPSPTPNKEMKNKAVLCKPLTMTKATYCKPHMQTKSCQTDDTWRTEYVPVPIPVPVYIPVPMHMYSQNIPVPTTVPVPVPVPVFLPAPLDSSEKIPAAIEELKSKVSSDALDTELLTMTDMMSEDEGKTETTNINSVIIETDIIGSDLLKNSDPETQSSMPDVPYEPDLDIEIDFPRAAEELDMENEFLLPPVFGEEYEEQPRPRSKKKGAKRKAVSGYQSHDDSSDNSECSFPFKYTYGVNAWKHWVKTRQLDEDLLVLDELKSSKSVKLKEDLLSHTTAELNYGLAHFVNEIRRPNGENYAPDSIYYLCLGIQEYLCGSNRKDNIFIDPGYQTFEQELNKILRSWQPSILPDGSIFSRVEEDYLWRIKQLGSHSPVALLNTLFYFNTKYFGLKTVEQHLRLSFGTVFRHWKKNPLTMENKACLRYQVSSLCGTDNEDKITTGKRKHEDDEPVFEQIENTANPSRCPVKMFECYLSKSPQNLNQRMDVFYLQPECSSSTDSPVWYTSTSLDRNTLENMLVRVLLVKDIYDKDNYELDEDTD
The experiment in a line: affinity purification with mass spectrometry; RIME: U2OS-derived cells fixed with DMA then 1% formaldehyde, sonicated; IP with anti-flag antibody (Flag-ZMYM2 line) or antibody against endogenous ZMYM2 on beads overnight at 4 °C; buffers with 20 mM NEM and 30 mM IAA; 10 RIPA washes; on-bead trypsin; Orbitrap; three experiments.

Protein sequences, listed by entry. Tags and fused reporters are not part of them. Residues count along the entry.
UniProt P83916: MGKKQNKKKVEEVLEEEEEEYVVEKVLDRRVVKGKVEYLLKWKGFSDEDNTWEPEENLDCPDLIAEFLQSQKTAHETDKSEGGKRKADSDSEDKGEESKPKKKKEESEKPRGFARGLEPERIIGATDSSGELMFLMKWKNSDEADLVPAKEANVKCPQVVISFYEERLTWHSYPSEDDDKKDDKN
UniProt Q14839: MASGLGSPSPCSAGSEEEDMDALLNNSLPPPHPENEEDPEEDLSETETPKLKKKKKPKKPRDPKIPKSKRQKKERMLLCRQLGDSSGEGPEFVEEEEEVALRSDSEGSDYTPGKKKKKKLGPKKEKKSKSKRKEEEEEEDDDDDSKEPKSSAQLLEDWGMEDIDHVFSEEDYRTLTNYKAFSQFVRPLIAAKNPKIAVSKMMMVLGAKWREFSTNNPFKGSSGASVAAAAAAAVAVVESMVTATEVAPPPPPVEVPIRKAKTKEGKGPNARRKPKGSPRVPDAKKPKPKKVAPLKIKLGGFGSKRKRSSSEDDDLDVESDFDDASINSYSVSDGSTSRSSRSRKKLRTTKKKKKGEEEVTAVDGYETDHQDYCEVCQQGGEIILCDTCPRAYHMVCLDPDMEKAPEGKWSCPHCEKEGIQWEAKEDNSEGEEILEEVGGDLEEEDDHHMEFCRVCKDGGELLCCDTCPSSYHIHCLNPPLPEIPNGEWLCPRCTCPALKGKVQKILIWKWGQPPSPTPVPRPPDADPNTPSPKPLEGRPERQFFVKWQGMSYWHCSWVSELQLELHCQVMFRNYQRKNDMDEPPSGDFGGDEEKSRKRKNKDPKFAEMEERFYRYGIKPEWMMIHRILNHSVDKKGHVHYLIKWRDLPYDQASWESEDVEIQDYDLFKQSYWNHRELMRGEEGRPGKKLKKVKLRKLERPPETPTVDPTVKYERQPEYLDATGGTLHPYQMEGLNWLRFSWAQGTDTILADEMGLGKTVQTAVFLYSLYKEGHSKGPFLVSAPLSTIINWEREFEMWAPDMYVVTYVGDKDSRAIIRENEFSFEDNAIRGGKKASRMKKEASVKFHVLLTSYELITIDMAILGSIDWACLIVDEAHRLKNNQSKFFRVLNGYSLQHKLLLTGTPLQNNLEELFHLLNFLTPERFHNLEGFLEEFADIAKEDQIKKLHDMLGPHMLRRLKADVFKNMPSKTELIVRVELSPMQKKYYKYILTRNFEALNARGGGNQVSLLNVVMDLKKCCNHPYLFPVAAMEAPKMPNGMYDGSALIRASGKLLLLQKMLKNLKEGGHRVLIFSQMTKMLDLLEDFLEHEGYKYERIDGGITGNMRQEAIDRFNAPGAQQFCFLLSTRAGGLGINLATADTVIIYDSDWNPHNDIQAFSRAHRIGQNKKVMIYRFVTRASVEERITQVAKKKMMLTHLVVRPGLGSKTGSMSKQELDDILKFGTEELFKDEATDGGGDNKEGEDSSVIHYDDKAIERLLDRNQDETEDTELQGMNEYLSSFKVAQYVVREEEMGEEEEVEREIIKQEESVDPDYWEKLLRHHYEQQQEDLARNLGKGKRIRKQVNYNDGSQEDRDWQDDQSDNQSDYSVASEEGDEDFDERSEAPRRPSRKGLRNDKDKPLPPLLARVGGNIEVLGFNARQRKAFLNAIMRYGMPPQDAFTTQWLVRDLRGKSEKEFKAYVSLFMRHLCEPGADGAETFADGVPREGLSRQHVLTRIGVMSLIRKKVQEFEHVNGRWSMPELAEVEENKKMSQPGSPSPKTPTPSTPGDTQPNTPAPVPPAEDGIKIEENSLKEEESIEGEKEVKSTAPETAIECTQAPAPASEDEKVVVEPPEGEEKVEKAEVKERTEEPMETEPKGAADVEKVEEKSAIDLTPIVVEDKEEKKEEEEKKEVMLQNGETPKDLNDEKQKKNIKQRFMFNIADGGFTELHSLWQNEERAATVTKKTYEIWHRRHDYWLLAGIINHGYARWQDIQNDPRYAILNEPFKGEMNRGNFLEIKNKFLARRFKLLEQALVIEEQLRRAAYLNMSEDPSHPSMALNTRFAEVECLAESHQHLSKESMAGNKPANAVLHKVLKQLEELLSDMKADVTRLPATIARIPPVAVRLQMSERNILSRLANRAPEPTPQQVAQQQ
UniProt Q9UKL0: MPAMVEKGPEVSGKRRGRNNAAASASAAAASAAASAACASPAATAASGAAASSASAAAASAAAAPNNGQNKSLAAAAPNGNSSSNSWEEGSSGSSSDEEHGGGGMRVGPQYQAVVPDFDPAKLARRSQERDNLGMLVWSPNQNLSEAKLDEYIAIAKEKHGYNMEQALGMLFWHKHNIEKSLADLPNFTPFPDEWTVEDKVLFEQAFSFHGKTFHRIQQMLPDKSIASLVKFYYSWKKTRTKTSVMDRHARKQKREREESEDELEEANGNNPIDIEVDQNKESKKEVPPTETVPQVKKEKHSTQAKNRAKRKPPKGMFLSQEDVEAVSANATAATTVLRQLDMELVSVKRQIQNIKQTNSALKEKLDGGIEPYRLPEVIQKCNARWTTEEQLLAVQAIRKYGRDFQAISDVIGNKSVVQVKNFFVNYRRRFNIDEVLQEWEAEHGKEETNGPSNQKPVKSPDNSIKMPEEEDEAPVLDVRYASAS
UniProt P55854, residues 1-92: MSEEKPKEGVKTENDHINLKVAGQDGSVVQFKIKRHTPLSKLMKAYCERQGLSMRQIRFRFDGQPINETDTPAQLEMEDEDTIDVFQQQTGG
UniProt Q13263: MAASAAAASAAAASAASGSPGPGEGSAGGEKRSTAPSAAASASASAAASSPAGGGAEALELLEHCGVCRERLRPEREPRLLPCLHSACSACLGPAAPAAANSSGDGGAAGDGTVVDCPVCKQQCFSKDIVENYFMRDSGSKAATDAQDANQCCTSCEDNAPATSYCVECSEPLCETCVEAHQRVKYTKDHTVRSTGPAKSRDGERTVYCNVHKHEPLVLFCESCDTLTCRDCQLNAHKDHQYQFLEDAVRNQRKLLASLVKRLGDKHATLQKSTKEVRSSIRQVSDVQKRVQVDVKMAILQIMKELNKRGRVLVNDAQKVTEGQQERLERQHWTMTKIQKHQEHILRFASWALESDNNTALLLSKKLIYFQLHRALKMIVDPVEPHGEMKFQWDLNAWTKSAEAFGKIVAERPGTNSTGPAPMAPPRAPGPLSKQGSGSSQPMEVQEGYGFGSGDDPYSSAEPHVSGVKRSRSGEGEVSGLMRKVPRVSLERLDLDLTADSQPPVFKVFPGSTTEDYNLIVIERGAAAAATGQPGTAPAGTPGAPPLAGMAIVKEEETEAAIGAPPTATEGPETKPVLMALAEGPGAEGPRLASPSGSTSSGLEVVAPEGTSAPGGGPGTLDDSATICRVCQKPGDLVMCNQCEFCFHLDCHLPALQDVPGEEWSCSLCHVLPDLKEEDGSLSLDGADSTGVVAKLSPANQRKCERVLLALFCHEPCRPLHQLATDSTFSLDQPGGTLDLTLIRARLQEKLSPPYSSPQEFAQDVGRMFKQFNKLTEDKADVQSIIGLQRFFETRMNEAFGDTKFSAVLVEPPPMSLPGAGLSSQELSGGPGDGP

Experiment [2] concerns the target T2, Flag-tagged ZMYM2 (stable U2OS-Flp-in cell line flag-ZMYM2(WT)) (UniProt Q9UBW7).
T2 sequence: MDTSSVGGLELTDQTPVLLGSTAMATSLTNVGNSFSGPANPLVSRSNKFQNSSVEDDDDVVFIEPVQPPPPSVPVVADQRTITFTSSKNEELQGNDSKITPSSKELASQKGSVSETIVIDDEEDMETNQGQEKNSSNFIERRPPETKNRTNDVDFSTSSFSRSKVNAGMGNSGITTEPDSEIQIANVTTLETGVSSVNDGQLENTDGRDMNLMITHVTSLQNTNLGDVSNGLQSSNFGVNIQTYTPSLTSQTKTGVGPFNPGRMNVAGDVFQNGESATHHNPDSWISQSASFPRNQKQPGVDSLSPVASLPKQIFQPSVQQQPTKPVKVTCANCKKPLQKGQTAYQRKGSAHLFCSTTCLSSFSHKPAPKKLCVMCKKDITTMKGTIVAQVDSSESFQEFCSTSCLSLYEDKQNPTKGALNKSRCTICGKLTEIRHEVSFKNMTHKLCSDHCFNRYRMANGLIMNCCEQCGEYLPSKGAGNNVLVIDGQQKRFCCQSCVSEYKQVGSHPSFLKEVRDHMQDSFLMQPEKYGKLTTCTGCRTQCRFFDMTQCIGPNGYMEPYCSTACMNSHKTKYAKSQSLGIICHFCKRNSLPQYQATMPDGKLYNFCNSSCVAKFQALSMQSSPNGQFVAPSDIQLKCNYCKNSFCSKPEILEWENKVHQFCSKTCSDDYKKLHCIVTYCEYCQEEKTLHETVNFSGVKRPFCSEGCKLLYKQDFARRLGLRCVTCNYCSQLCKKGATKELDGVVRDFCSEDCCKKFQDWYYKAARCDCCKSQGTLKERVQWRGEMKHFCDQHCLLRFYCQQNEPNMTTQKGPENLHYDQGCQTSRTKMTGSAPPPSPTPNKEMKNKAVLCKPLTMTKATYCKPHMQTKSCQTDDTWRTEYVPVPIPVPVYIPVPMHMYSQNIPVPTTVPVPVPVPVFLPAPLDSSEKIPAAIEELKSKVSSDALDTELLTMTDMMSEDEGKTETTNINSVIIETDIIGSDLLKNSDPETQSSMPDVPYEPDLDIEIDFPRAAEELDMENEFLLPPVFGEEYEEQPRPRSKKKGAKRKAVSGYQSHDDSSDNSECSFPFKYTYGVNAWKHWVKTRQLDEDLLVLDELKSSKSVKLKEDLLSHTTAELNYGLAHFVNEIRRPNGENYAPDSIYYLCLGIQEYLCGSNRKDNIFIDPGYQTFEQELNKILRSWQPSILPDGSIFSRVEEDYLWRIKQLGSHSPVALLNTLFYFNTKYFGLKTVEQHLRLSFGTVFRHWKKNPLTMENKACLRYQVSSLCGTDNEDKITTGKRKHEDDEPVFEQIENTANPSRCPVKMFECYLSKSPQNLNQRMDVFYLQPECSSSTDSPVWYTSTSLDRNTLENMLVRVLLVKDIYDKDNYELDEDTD
The description is as above.

The values below come from paper PMC10629813.

These are yes or no findings as the source states them, for the method shown. Binding seen in cells or lysates may run through a third protein. A yes stands for co-enrichment or nearness to the bait. Other partners may have been found. For some assays here: Where a sequence is shown, tags or fusion partners need not be part of it.

With CBX1/HP1β (from UniProt P83916 1-185), the binding result in experiment [1] and in experiment [2] was “binds” in each case.
In the case of CHD4 (from UniProt Q14839 1-1912), the binding result in experiment [1] and in experiment [2] was “binds” in each case.
Regarding CoREST (from UniProt Q9UKL0 1-485), the binding result in experiment [1] and in experiment [2] was “binds” throughout.
Consider SUMO3 (from UniProt P55854 1-92), for which the binding entry in experiment [1] and in experiment [2] was “binds” throughout.
On to “TRIM28 (endogenous, U2OS cells) (from UniProt Q13263 1-835)”, for which the binding result in experiment [1] and in experiment [2] was “binds” throughout.

B1: ADNP2 (protein, UniProt Q6IQ32 1-1131)
chain: MFQIPVENLDNIRKVRKKVKGILVDIGLDSCKELLKDLKGFDPGEKYFHNTSWGDVSLWEPSGKKVRYRTKPYCCGLCKYSTKVLTSFKNHLHRYHEDEIDQELVIPCPNCVFASQPKVVGRHFRMFHAPVRKVQNYTVNILGETKSSRSDVISFTCLKCNFSNTLYYSMKKHVLVAHFHYLINSYFGLRTEEMGEQPKTNDTVSIEKIPPPDKYYCKKCNANASSQDALMYHILTSDIHRDLENKLRSVISEHIKRTGLLKQTHIAPKPAAHLAAPANGSAPSAPAQPPCFHLALPQNSPSPAAGQPVTVAQGAPGSLTHSPPAAGQSHMTLVSSPLPVGQNSLTLQPPAPQPVFLSHGVPLHQSVNPPVLPLSQPVGPVNKSVGTSVLPINQTVRPGVLPLTQPVGPINRPVGPGVLPVSPSVTPGVLQAVSPGVLSVSRAVPSGVLPAGQMTPAGQMTPAGVIPGQTATSGVLPTGQMVQSGVLPVGQTAPSRVLPPGQTAPLRVISAGQVVPSGLLSPNQTVSSSAVVPVNQGVNSGVLQLSQPVVSGVLPVGQPVRPGVLQLNQTVGTNILPVNQPVRPGASQNTTFLTSGSILRQLIPTGKQVNGIPTYTLAPVSVTLPVPPGGLATVAPPQMPIQLLPSGAAAPMAGSMPGMPSPPVLVNAAQSVFVQASSSAADTNQVLKQAKQWKTCPVCNELFPSNVYQVHMEVAHKHSESKSGEKLEPEKLAACAPFLKWMREKTVRCLSCKCLVSEEELIHHLLMHGLGCLFCPCTFHDIKGLSEHSRNRHLGKKKLPMDYSNRGFQLDVDANGNLLFPHLDFITILPKEKLGEREVYLAILAGIHSKSLVPVYVKVRPQAEGTPGSTGKRVSTCPFCFGPFVTTEAYELHLKERHHIMPTVHTVLKSPAFKCIHCCGVYTGNMTLAAIAVHLVRCRSAPKDSSSDLQAQPGFIHNSELLLVSGEVMHDSSFSVKRKLPDGHLGAEDQRHGEEQPPILNADAAPGPEKVTSVVPFKRQRNESRTEGPIVKDEALQILALDPKKYEGRSYEEKKQFLKDYFHKKPYPSKKEIELLSSLFWVWKIDVASFFGKRRYICMKAIKNHKPSVLLGFDMSELKNVKHRLNFEYEP
Consider B1, for which the binding entry in experiment [1] and in experiment [2] was “binds” each time.

B2: ADNP (endogenous, U2OS cells) (protein, UniProt Q9H2P0 1-1102)
chain: MFQLPVNNLGSLRKARKTVKKILSDIGLEYCKEHIEDFKQFEPNDFYLKNTTWEDVGLWDPSLTKNQDYRTKPFCCSACPFSSKFFSAYKSHFRNVHSEDFENRILLNCPYCTFNADKKTLETHIKIFHAPNASAPSSSLSTFKDKNKNDGLKPKQADSVEQAVYYCKKCTYRDPLYEIVRKHIYREHFQHVAAPYIAKAGEKSLNGAVPLGSNAREESSIHCKRCLFMPKSYEALVQHVIEDHERIGYQVTAMIGHTNVVVPRSKPLMLIAPKPQDKKSMGLPPRIGSLASGNVRSLPSQQMVNRLSIPKPNLNSTGVNMMSSVHLQQNNYGVKSVGQGYSVGQSMRLGLGGNAPVSIPQQSQSVKQLLPSGNGRSYGLGSEQRSQAPARYSLQSANASSLSSGQLKSPSLSQSQASRVLGQSSSKPAAAATGPPPGNTSSTQKWKICTICNELFPENVYSVHFEKEHKAEKVPAVANYIMKIHNFTSKCLYCNRYLPTDTLLNHMLIHGLSCPYCRSTFNDVEKMAAHMRMVHIDEEMGPKTDSTLSFDLTLQQGSHTNIHLLVTTYNLRDAPAESVAYHAQNNPPVPPKPQPKVQEKADIPVKSSPQAAVPYKKDVGKTLCPLCFSILKGPISDALAHHLRERHQVIQTVHPVEKKLTYKCIHCLGVYTSNMTASTITLHLVHCRGVGKTQNGQDKTNAPSRLNQSPSLAPVKRTYEQMEFPLLKKRKLDDDSDSPSFFEEKPEEPVVLALDPKGHEDDSYEARKSFLTKYFNKQPYPTRREIEKLAASLWLWKSDIASHFSNKRKKCVRDCEKYKPGVLLGFNMKELNKVKHEMDFDAEWLFENHDEKDSRVNASKTADKKLNLGKEDDSSSDSFENLEEESNESGSPFDPVFEVEPKISNDNPEEHVLKVIPEDASESEEKLDQKEDGSKYETIHLTEEPTKLMHNASDSEVDQDDVVEWKDGASPSESGPGSQQVSDFEDNTCEMKPGTWSDESSQSEDARSSKPAAKKKATMQGDREQLKWKNSSYGKVEGFWSKDQSQWKNASENDERLSNPQIEWQNSTIDSEDGEQFDNMTDGVAEPMHGSLAGVKLSSQQA
For B2, the binding result in experiment [1] and in experiment [2] was “binds” each time.
